# Data from the supplement of paper PMC8728848.
# The list shows a part of the results.
# B1: GS7807F-bth-514-18-514 (Bacteroides thetaiotaomicron) (protein)
# chain: AGSCTGNFEEYNTNQFQIHEADPSTLMKSMIETIVNIQQNDSQMMDQMVGQLGGYLTCANVWSGTNFGTFNQSDAWNAGPWNTNFEKIYGNFFQIQEATNESGHYYAFARMIRAITMLRVADCYGPMPYSQVKKGNFYVAYDTEEQVYKNIMEDFASAANVLYNYYKDTNGNAPLASNDPVFSGNYANWARLANSMRLRVAIRISTAYPEMAKENAEAAASHEAGLIEANNDNAMMDCGSQTNPYQLAAVSWGDLRVNANIVDYMNGYGDPRMSKYFNHSTFTGHTQEYVGMRSGEDGFAKSDVAGYSIPAITGTSKLLVFCAAETAFLRAEGKLKNWSVGNKSAKEYYEEGIKLSMEQYGTTMPDNYLTNTEKPTVSHNNDPRGHAYTISNTVAVAWNDNNEEENLQRIITQKWIANYPLGLEAWAEYRRTGYPELYPCIDNLSPSGVDSKRGMRRLRFPYTEVQNNHSNYQQGVSYLKNGGPDNEATDLSWGKTN
# Columns and labels:
# Assay in all cases: glycan array binding signal (z-score within array); higher = stronger binding
# Conditions in all cases: glycan notation: IUPAC condensed, linker removed
# [1] = target: Neu5Ac(a2-6)Gal(b1-3)GlcNAc(b1-3)[Gal(b1-4)GlcNAc(b1-6)]Gal(b1-4)Glc
# In short: (§1)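 Arrays were curated from the Consortium for Functional Glycomics database, 3228 in total, and kept only where the protein sequence was available. Binding is expressed as a within-array Z-score. This score was averaged across arrays of the same protein sequence at different concentrations or buffers and across linkers, and negative values can be read as non-binding.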
# Neu5Ac(a2-6)Gal(b1-4)Glc = target: Neu5Ac(a2-6)Gal(b1-4)Glc
# In short: as §1
# [2] = target: Neu5Ac(a2-6)Gal(b1-4)GlcNAc
# In short: as §1
# [3] = target: Neu5Ac(a2-6)Gal(b1-4)GlcNAc(b1-2)Man
# In short: as §1
# [4] = target: Neu5Ac(a2-6)Gal(b1-4)GlcNAc(b1-2)Man(a1-3)Man(b1-4)GlcNAc(b1-4)GlcNAc
# In short: as §1
# [5] = target: Neu5Ac(a2-6)Gal(b1-4)GlcNAc(b1-2)Man(a1-3)[Gal(b1-4)GlcNAc(b1-2)Man(a1-6)]Man(b1-4)GlcNAc(b1-4)GlcNAc
# In short: as §1
# [6] = target: Neu5Ac(a2-6)Gal(b1-4)GlcNAc(b1-2)Man(a1-3)[GlcNAc(b1-2)Man(a1-6)]Man(b1-4)GlcNAc(b1-4)GlcNAc
# In short: as §1
# [7] = target: Neu5Ac(a2-6)Gal(b1-4)GlcNAc(b1-2)Man(a1-3)[GlcNAc(b1-4)][Neu5Ac(a2-6)Gal(b1-4)GlcNAc(b1-2)Man(a1-6)]Man(b1-4)GlcNAc(b1-4)GlcNAc
# In short: as §1
# [8] = target: Neu5Ac(a2-6)Gal(b1-4)GlcNAc(b1-2)Man(a1-3)[Man(a1-6)]Man(b1-4)GlcNAc(b1-4)GlcNAc
# In short: as §1
# [9] = target: Neu5Ac(a2-6)Gal(b1-4)GlcNAc(b1-2)Man(a1-3)[Neu5Ac(a2-3)Gal(b1-4)GlcNAc(b1-2)Man(a1-6)]Man(b1-4)GlcNAc(b1-4)GlcNAc
# In short: as §1
# [10] = target: Neu5Ac(a2-6)Gal(b1-4)GlcNAc(b1-2)Man(a1-3)[Neu5Ac(a2-6)Gal(b1-4)GlcNAc(b1-2)Man(a1-6)]Man(b1-4)GlcNAc(b1-4)GlcNAc
# In short: as §1
# [11] = target: Neu5Ac(a2-6)Gal(b1-4)GlcNAc(b1-2)Man(a1-3)[Neu5Ac(a2-6)Gal(b1-4)GlcNAc(b1-2)Man(a1-6)]Man(b1-4)GlcNAc(b1-4)[Fuc(a1-6)]GlcNAc
# In short: as §1
# [12] = target: Neu5Ac(a2-6)Gal(b1-4)GlcNAc(b1-2)Man(a1-6)Man(b1-4)GlcNAc(b1-4)GlcNAc
# In short: as §1
# [13] = target: Neu5Ac(a2-6)Gal(b1-4)GlcNAc(b1-2)Man(a1-6)[Gal(b1-4)GlcNAc(b1-2)Man(a1-3)]Man(b1-4)GlcNAc(b1-4)GlcNAc
# In short: as §1
# [14] = target: Neu5Ac(a2-6)Gal(b1-4)GlcNAc(b1-2)Man(a1-6)[GlcNAc(b1-2)Man(a1-3)]Man(b1-4)GlcNAc(b1-4)GlcNAc
# In short: as §1
# [15] = target: Neu5Ac(a2-6)Gal(b1-4)GlcNAc(b1-2)Man(a1-6)[Man(a1-3)]Man(b1-4)GlcNAc(b1-4)GlcNAc
# In short: as §1
# [16] = target: Neu5Ac(a2-6)Gal(b1-4)GlcNAc(b1-2)[Neu5Ac(a2-6)Gal(b1-4)GlcNAc(b1-4)]Man(a1-3)[GlcNAc(b1-4)][Neu5Ac(a2-6)Gal(b1-4)GlcNAc(b1-2)[Neu5Ac(a2-6)Gal(b1-4)GlcNAc(b1-6)]Man(a1-6)]Man(b1-4)GlcNAc(b1-4)GlcNAc
# In short: as §1
# [17] = target: Neu5Ac(a2-6)Gal(b1-4)GlcNAc(b1-2)[Neu5Ac(a2-6)Gal(b1-4)GlcNAc(b1-4)]Man(a1-3)[GlcNAc(b1-4)][Neu5Ac(a2-6)Gal(b1-4)GlcNAc(b1-4)Man(a1-6)]Man(b1-4)GlcNAc(b1-4)GlcNAc
# In short: as §1
# [18] = target: Neu5Ac(a2-6)Gal(b1-4)GlcNAc(b1-2)[Neu5Ac(a2-6)Gal(b1-4)GlcNAc(b1-6)]Man(a1-6)[Neu5Ac(a2-6)Gal(b1-4)GlcNAc(b1-2)Man(a1-3)][GlcNAc(b1-4)]Man(b1-4)GlcNAc(b1-4)GlcNAc
# In short: as §1
# [19] = target: Neu5Ac(a2-6)Gal(b1-4)GlcNAc(b1-3)Gal(b1-3)GlcNAc
# In short: as §1
# [20] = target: Neu5Ac(a2-6)Gal(b1-4)GlcNAc(b1-3)Gal(b1-4)GlcNAc
# In short: as §1
# [21] = target: Neu5Ac(a2-6)Gal(b1-4)GlcNAc(b1-3)Gal(b1-4)GlcNAc(b1-2)Man(a1-3)[Neu5Ac(a2-6)Gal(b1-4)GlcNAc(b1-3)Gal(b1-4)GlcNAc(b1-2)Man(a1-6)]GalNAc
# In short: as §1
# [22] = target: Neu5Ac(a2-6)Gal(b1-4)GlcNAc(b1-3)Gal(b1-4)GlcNAc(b1-3)Gal(b1-4)GlcNAc
# In short: as §1
# [23] = target: Neu5Ac(a2-6)Gal(b1-4)GlcNAc(b1-3)Gal(b1-4)GlcNAc(b1-3)Gal(b1-4)GlcNAc(b1-2)Man(a1-3)[Neu5Ac(a2-6)Gal(b1-4)GlcNAc(b1-3)Gal(b1-4)GlcNAc(b1-3)Gal(b1-4)GlcNAc(b1-2)Man(a1-6)]GalNAc
# In short: as §1
# [24] = target: Neu5Ac(a2-6)Gal(b1-4)GlcNAc(b1-3)Gal(b1-4)GlcNAc(b1-3)GalNAc
# In short: as §1
# [25] = target: Neu5Ac(a2-6)Gal(b1-4)GlcNAc(b1-3)Gal(b1-4)GlcNAc(b1-3)[Neu5Ac(a2-6)Gal(b1-4)GlcNAc(b1-3)Gal(b1-4)GlcNAc(b1-6)]GalNAc
# In short: as §1
# [26] = target: Neu5Ac(a2-6)Gal(b1-4)GlcNAc(b1-3)Gal(b1-4)GlcNAc(b1-6)[Gal(b1-3)]GalNAc
# In short: as §1
# [27] = target: Neu5Ac(a2-6)Gal(b1-4)GlcNAc(b1-3)Gal(b1-4)[Fuc(a1-3)]GlcNAc(b1-3)Gal(b1-4)[Fuc(a1-3)]GlcNAc
# In short: as §1
# [28] = target: Neu5Ac(a2-6)Gal(b1-4)GlcNAc(b1-3)GalNAc
# In short: as §1
# [29] = target: Neu5Ac(a2-6)Gal(b1-4)GlcNAc(b1-3)[Neu5Ac(a2-6)Gal(b1-4)GlcNAc(b1-6)]GalNAc
# In short: as §1
# [30] = target: Neu5Ac(a2-6)Gal(b1-4)GlcNAc(b1-6)GalNAc
# In short: as §1
# [31] = target: Neu5Ac(a2-6)Gal(b1-4)GlcNAc(b1-6)[Gal(b1-3)GlcNAc(b1-3)]Gal(b1-4)Glc
# In short: as §1
# [32] = target: Neu5Ac(a2-6)Gal(b1-4)GlcNAc(b1-6)[Gal(b1-3)]GalNAc
# In short: as §1
# [33] = target: Neu5Ac(a2-6)Gal(b1-4)GlcNAc6S
# In short: as §1
# Neu5Ac(a2-6)GalNAc = target: Neu5Ac(a2-6)GalNAc
# In short: as §1
# [34] = target: Neu5Ac(a2-6)GalNAc(b1-4)GlcNAc
# In short: as §1
# [35] = target: Neu5Ac(a2-6)GalNAc(b1-4)GlcNAc6S
# In short: as §1
# [36] = target: Neu5Ac(a2-6)GlcNAc(b1-4)GlcNAc
# In short: as §1
binder,measurement,setting,value
B1,glycan array binding signal (z-score),[1],-0.294
same,glycan array binding signal (z-score),Neu5Ac(a2-6)Gal(b1-4)Glc,0.099
same,glycan array binding signal (z-score),[2],-0.46
same,glycan array binding signal (z-score),[3],0.851
same,glycan array binding signal (z-score),[4],-0.389
same,glycan array binding signal (z-score),[5],0.779
same,glycan array binding signal (z-score),[6],1.96
same,glycan array binding signal (z-score),[7],-0.135
same,glycan array binding signal (z-score),[8],0.592
same,glycan array binding signal (z-score),[9],0.724
same,glycan array binding signal (z-score),[10],-0.153
same,glycan array binding signal (z-score),[11],0.201
same,glycan array binding signal (z-score),[12],3.88
same,glycan array binding signal (z-score),[13],3.49
same,glycan array binding signal (z-score),[14],-0.719
same,glycan array binding signal (z-score),[15],0.785
same,glycan array binding signal (z-score),[16],0.039
same,glycan array binding signal (z-score),[17],0.006
same,glycan array binding signal (z-score),[18],0.93
same,glycan array binding signal (z-score),[19],-0.025
same,glycan array binding signal (z-score),[20],-0.616
same,glycan array binding signal (z-score),[21],0.299
same,glycan array binding signal (z-score),[22],-0.415
same,glycan array binding signal (z-score),[23],0.55
same,glycan array binding signal (z-score),[24],-0.448
same,glycan array binding signal (z-score),[25],0.811
same,glycan array binding signal (z-score),[26],0.538
same,glycan array binding signal (z-score),[27],1.81
same,glycan array binding signal (z-score),[28],-0.594
same,glycan array binding signal (z-score),[29],1.12
same,glycan array binding signal (z-score),[30],-0.743
same,glycan array binding signal (z-score),[31],-0.38
same,glycan array binding signal (z-score),[32],-0.639
same,glycan array binding signal (z-score),[33],-0.827
same,glycan array binding signal (z-score),Neu5Ac(a2-6)GalNAc,-0.868
same,glycan array binding signal (z-score),[34],-0.875
same,glycan array binding signal (z-score),[35],-0.466
same,glycan array binding signal (z-score),[36],-0.714

# An excerpt of these results, as tab-separated lines.
binder	measurement	setting	value
B1	glycan array binding signal (z-score)	[2]	-0.46
same	glycan array binding signal (z-score)	[29]	1.12
